This assay is described as follows: qHTS Assay for Lipid Storage Modulators in Drosophila S3 Cells.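 As to cell number change: cells counted by Cell Tracker Red CMTPX staining in the red channel.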 As to conditions: BODIPY lipid droplet fluorescence, 18-24 h; for cell number change: measured here: cell count max response, cells fed with added oleic acid. The method in brief: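 Drosophila S3 cells got compounds at several concentrations plus oleic acid (400 uM solution). Laser-scanning cytometry with 488 nm excitation read lipid droplets at 500-530 nm and cells at 575-640 nm. Percent activity was relative to 20 uM Triacsin C.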

The mark [1] stands for this setting: measured here: cell number channel AC50, cells fed with added oleic acid.
Where [2] appears, read: measured here: lipid fluorescence (Fed channel) AC50, cells fed with added oleic acid.

Some of the results follow. The main result of the screen is listed elsewhere. These columns were measured beside it and carry no call. Most of these compounds were active or inconclusive in the main read-out, so they are no random draw. The note in brackets gives the kind of curve behind each potency; many fits are weak.

What is called AC50 is the midpoint of the concentration-response curve, whichever way the signal moves. Read a low AC50 as greater potency.

Turning to `Cc1ccc(C(NC(=O)N2CCCCC2)=C(Cl)Cl)cc1F`, the cell number change is -30.1%. For the same compound, under setting [1], the AC50 is 4.11 µM [falling, partial curve]. Further, under setting [2], the concentration at half-maximal activity (AC50) is 0.00517 µM [falling, full curve, poor fit].

In the case of `Cc1cccc(OCC(=O)N(C)CC(=O)Nc2cccc(F)c2)c1C`, the cell number change turned out to be 1.83%. For the same compound, under setting [2], the AC50 was 0.13 µM [rising, full curve, poor fit]. As for `CC(=O)Oc1ccccc1C(=O)NC(C)CCc1ccccc1` (centres undefined), the cell number change is 1.57%. Also, the AC50 under setting [2] was 3.66 µM [falling, full curve, poor fit]. Turning to `COc1ccccc1N(CC(=O)N(CC(C)C)CC(C)C)S(=O)(=O)c1cccs1`, the cell number change was -22.2%. `COc1cc(-c2noc(C)c2-c2ccc(N(C)C)nc2)cc(OC)c1OC`: the cell number change was 7.12%. For `CCOC(=O)c1cnc(SC)nc1N`, the cell number change is 5.18%. Moreover, under setting [2], the AC50 is 20.6 µM [falling, partial curve]. For the compound `NC(=O)C1CCN(c2cc(Cl)ccc2[N+](=O)[O-])CC1`, the cell number change came out at 6.83%. For the compound `Cc1ccsc1C(=O)OCC(=O)NCc1ccc2c(c1)OCO2`, the AC50 was 0.58 µM [rising, single point] under setting [1] and 0.58 µM [rising, single point] under setting [2]. Take `COc1cc(C)c(CN2CCC(Oc3ccc(C(=O)N4CCCC4)cc3)CC2)cc1C`: the cell number change is -25.7%. Moreover, under setting [1], the AC50 is 0.103 µM [rising, full curve, poor fit]. Consider `Cc1nc(SCC(=O)N2CCN(c3ccccc3)CC2)c2oc3ccccc3c2n1`, for which the cell number change was 32.9%. Also, the AC50 under setting [1] is 0.231 µM [rising, full curve, poor fit]. For the same compound, the AC50 under setting [2] was 0.651 µM [rising, full curve]. Regarding `O=C(O)/C=C/c1cccc(NS(=O)(=O)c2ccccc2)c1`, the cell number change is 4.21%. Under setting [1], the AC50 is 1.64 µM [falling, partial curve]. Under setting [2], the AC50 was 0.58 µM [falling, single point]. As to `O=C(Nc1ccc(N2CCOCC2)cc1)c1ccc(Cl)c(S(=O)(=O)N2CCCC2)c1`, the cell number change was -34.4%. For the same compound, the AC50 under setting [1] was 20.6 µM [falling, partial curve]. Besides, the AC50 under setting [2] is 6.51 µM [falling, single point]. In the case of `CCCc1c(C)nc(N2CCN(c3ccc(F)cc3)CC2)[nH]c1=O`, the cell number change was found to be 17.9%. As to `Cc1cc(C)cc(-n2ccnc2SCC(=O)c2c(N)n(C3CC3)c(=O)[nH]c2=O)c1`, the cell number change is -30.3%. The AC50 under setting [1] is 29.1 µM [falling, single point]. Also, under setting [2], the AC50 was 25.9 µM [falling, partial curve, poor fit]. Consider `CCSc1nnc(NC(=O)c2ccc(C)cc2)s1`, for which the cell number change was 41.3%. Also, the AC50 under setting [1] was 29.1 µM [rising, single point]. Under setting [2], the AC50 was 1.46 µM [falling, full curve].

As to `CCOc1ccc(N2C(=O)CC(NCCc3ccncc3)C2=O)cc1` (centres undefined), the cell number change is -3.96%. Moreover, the AC50 under setting [2] is 11.6 µM [falling, single point]. Regarding `O=C(NC(=S)Nc1ccccc1Cl)c1ccco1`, the cell number change was -5.46%. In the case of `O=C(COc1ccc(Cl)cc1)Nc1ccc2[nH]ncc2c1`, the cell number change was found to be 18.9%.

Consider `CN(C(=S)NCCN1CCOCC1)C(c1ccccc1)c1ccccc1`, for which the cell number change was determined as 3.28%. For `O=c1[nH]c(-c2ccccn2)nc(C(F)(F)F)c1Br`, the cell number change is -21.8%. Moreover, the AC50 under setting [2] is 0.82 µM [falling, full curve]. With `O=C1Nc2c(ccc(Cl)c2Cl)C(=O)C1(F)c1ccccc1` (centres undefined), the cell number change is -30.6%. Also, the AC50 under setting [1] is 20.6 µM [falling, partial curve]. For the compound `Cc1c(C(=O)N/N=C/c2cccc(O)c2)nnn1-c1nonc1N`, the cell number change was -18.5%. The AC50 under setting [2] is 2.31 µM [falling, partial curve]. `COc1ccc2cc3c(N)nn(C(=O)C4CCC(C(C)(C)C)CC4)c3nc2c1` (centres undefined): the cell number change is -82.7%. The AC50 under setting [1] was 18.4 µM [falling, single point]. Also, the AC50 under setting [2] is 18.4 µM [falling, partial curve]. On to `Cc1c(C(=O)N(C)C)c2cc(Cl)ccc2n1O`, for which the cell number change was -19.7%. Further, the AC50 under setting [2] was 0.0259 µM [falling, full curve, poor fit]. As for `COC(=O)c1cccc(-n2nnnc2SCC(=O)Nc2cc(C)on2)c1`, the cell number change is -15.8%.

Regarding `O=C(Nc1cccc(-c2csc(Nc3ccccc3)n2)c1)c1cc([N+](=O)[O-])cc(C(F)(F)F)c1`, the cell number change is -50.6%. Besides, under setting [1], the AC50 is 23.1 µM [falling, single point]. Moreover, the AC50 under setting [2] was 7.31 µM [falling, partial curve]. With `COc1ccccc1OCC(O)Cn1c(Br)nc2c1c(=O)[nH]c(=O)n2C` (centres undefined), the cell number change was -0.353%. As to `CCCCCOc1ccc2oc(=O)c3c(c2c1)CCCN3C(=O)CN1CCCC(C(=O)OCC)C1` (centres undefined), the cell number change was 63%. Further, the AC50 under setting [1] is 4.11 µM [rising, full curve]. Moreover, the AC50 under setting [2] was 4.61 µM [falling, partial curve].

For `Cc1ccc(C)c(OCCC(=O)OCC(=O)Nc2ccc(N3CCOCC3)cc2)c1`, the cell number change was 23%.

Consider `Cc1cc(C)cc(NC(=O)Cn2nnc(C(=O)NCc3ccco3)c2N)c1`, for which the cell number change turned out to be 6.1%. Further, the AC50 under setting [2] was 1.84 µM [rising, partial curve, poor fit]. As to `O=C1c2ccccc2C(=O)N1OCCOCCOCCBr`, the AC50 under setting [1] was 0.231 µM [falling, full curve]. With `CCOC(=O)N1CCN(C(=O)COC(=O)CSc2ccc([N+](=O)[O-])cc2)CC1`, the cell number change was -20%.

For `Cc1ccc(Nc2nnc(SCn3nnc4ccccc4c3=O)s2)cc1`, the AC50 under setting [1] is 1.46 µM [rising, partial curve]. `CCOC(=O)C1=C(C)NC(=O)CC1c1cc2c(cc1Br)OCO2` (centres undefined): the AC50 under setting [1] was 2.31 µM [rising, single point] and the AC50 under setting [2] was 4.11 µM [rising, partial curve]. As for `COc1ccc(NC(=O)c2ccccc2NS(=O)(=O)c2ccc(CNC(C)=O)cc2)c(OC)c1`, the cell number change is -10.5%. Besides, under setting [2], the AC50 is 0.00461 µM [falling, full curve, poor fit]. In the case of `O=C(Nc1ccc(Oc2ccccc2)nc1)C1CCCCN1Cc1cccc(OCCO)c1` (centres undefined), the cell number change was -20.9%. In addition, under setting [2], the AC50 is 14.6 µM [falling, partial curve]. Regarding `Clc1ccc(-c2nnc(-c3ccc(Br)cc3)c(N3CCSCC3)n2)cc1`, the cell number change was found to be 26.3%. As for `O=C(Nc1ccc(F)cc1F)NC1CC1`, the cell number change is 2.6%. Besides, under setting [1], the AC50 is 0.58 µM [rising, full curve, poor fit]. With `Cc1c(C(=O)NCCSCc2c(F)cccc2Cl)cnn1-c1ccc(Cl)cc1`, the cell number change is 7.99%. Besides, the AC50 under setting [2] is 0.092 µM [rising, full curve, poor fit]. Consider `Cc1cccc(NC(=O)Nc2cc(C)on2)c1`, for which the cell number change is -19.8%.

Source of the values: PubChem BioAssay AID2685 (National Center for Advancing Translational Sciences (NCATS), 2010).
